Results from ChEMBL document CHEMBL1150108, “Isolation of S-n-butylcysteine sulfoxide and six n-butyl-containing thiosulfinates from Allium siculum” (2002).

Tests used:
Type in all cases: functional
Staphylococcus aureus = test: Antibacterial activity against Staphylococcus […] at 10 ug/disk after overnight incubation by agar diffusion test
In short: (§1)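 Disk diffusion on agar plates seeded with the named strain. Test samples were dissolved in EtOH, and a 10 µL aliquot was applied to a 6 mm paper disk to give 10, 250 or 500 µg per disk. Commercial antibiotic disks served as controls. Plates were incubated overnight at 37 °C, and the diameter of the inhibition zone around each disk was read in mm.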

Escherichia coli = test: Antibacterial activity against Escherichia coli ATCC 25922 at 10 ug/disk after overnight incubation by agar diffusion test; in short: as §1
Pseudomonas aeruginosa = test: Antibacterial activity against Pseudomonas aeruginosa ATCC 27853 at 10 ug/disk after overnight incubation by agar diffusion test; in short: as §1

Sequence GENTAMICIN has an inhibition zone (IZ) (Staphylococcus aureus) of 22 mm, an inhibition zone (IZ) (Escherichia coli) of 18 mm and an inhibition zone (IZ) (Pseudomonas aeruginosa) of 18 mm.
